Assay results reported in PubChem BioAssay AID1671190 (National Center for Advancing Translational Sciences (NCATS), 2021).
In all, about 580,000 compounds went through this assay and about 6,100 (1.1%) were called active. The shares of active, inactive and inconclusive entries below differ from those in the screen. Calls come from the whole dose curve; as a rule, active = well fitted inhibition curve with a large enough effect; inconclusive = small, poorly fitted or top-dose-only effect, or another doubt; inactive = no such curve, though single readings can be large or run the other way. Potencies beside an inconclusive call are fits to weak or partial responses and may not hold up.

Sequences of proteins named here, by UniProt entry; tags and fusion partners are left off. A change or cut given only in a name is not applied to a line headed by its entry.
UniProt P18054: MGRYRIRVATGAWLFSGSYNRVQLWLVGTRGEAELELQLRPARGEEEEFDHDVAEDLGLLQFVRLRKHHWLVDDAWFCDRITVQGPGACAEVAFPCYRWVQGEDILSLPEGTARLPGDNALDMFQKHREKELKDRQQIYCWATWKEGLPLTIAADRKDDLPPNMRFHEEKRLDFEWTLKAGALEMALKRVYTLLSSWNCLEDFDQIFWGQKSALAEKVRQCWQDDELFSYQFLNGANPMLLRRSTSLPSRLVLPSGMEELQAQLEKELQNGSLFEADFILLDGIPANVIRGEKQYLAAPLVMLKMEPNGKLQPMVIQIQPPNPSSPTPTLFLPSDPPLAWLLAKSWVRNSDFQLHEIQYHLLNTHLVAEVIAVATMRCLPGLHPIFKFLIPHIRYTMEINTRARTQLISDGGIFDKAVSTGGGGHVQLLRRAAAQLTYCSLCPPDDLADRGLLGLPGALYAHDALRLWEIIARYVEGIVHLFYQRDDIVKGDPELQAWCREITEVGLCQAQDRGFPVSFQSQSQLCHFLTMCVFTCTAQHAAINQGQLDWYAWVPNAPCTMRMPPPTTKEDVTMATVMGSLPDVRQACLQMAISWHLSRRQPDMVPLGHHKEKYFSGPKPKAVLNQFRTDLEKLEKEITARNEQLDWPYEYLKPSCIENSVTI

target: Polyunsaturated fatty acid lipoxygenase ALOX12 (Homo sapiens) (UniProt P18054); test: Primary qHTS assay for inhibitors of human arachidonate 12S-lipoxygenase (ALOX12): Round 2; conditions: purified 12hLO, xylenol orange hydroperoxide absorbance; series mostly up to 108 µM
Summary of the method: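 Purified human 12hLO at 150 nM in 25 mM Hepes, 0.01% Triton X-100, pH 7.0, preincubated 15 min at room temperature with compound. Reaction started with 40 uM arachidonic acid, 30 min at room temperature. Hydroperoxide measured by Fe-xylenol orange, 573/405 nm absorbance ratio.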
Potency is the fitted concentration of half-maximal effect.

SMILES | Potency
CCOc1ccc2oc(=O)c(-c3ccccc3)c(C)c2c1 | inactive
COC(=O)C(NC(=O)CCc1c(C)nc2c(c(C)nn2-c2ccccc2)c1C)C(C)C (configuration not stated) | inactive
O=S(=O)(Nc1nc2ccc(S(=O)(=O)N3CCCCC3)cc2s1)c1ccccc1 | inconclusive: 50.1 µM [inhibitor, partial curve, poor fit]
COC(=O)c1ccc(CNC(=O)c2cc(COc3cncc(Cl)c3)on2)cc1 | inconclusive: 50.1 µM [inhibitor, partial curve, poor fit]
CCOC(=O)CN1C(=O)C2Cc3ccccc3CN2C1=S (configuration not stated) | inconclusive: 44.7 µM [inhibitor, partial curve, poor fit]
Cc1nc2nc(CSc3nnc(C)s3)cc(=O)n2[nH]1 | inconclusive: 39.8 µM [inhibitor, partial curve, poor fit]
C/C(=N\NC(=O)c1nnn(-c2nonc2N)c1CN(C)c1ccccc1)c1ccc(O)cc1 | inactive
CC(=O)Nc1ccc(NCC(O)COc2ccccc2)cc1 (configuration not stated) | inconclusive: 31.6 µM [inhibitor, single point]
C/C(=N\NC(=O)CCC(=O)Nc1ccccc1)c1cccs1 | inconclusive: 6.31 µM [inhibitor, full curve, poor fit]
COc1cccc(CN(Cc2cccnc2)S(=O)(=O)c2ccc(-n3cnnn3)c(C)c2)c1 | inconclusive: 35.5 µM [inhibitor, partial curve, poor fit]
C#CCn1c(C2CC(=O)N(c3ccc(OCC)cc3)C2)nc2ccccc21 (configuration not stated) | inactive
O=C1/C(=C/c2ccccc2F)Cc2ccccc21 | inconclusive: 50.1 µM [inhibitor, partial curve, poor fit]
C[C@@]12CCC=C[C@H]1[C@H](c1ccc(F)c(/C=C/c3ccccc3)c1)N(Cc1ccccc1)C2=O | inactive
CC(=O)N1CCc2ccccc2C1CC(=O)O (configuration not stated) | inactive
CCOC(=O)N1CCN(C(=O)c2cc(OC)c(OC)c(OC)c2)CC1 | inactive
CC(NC(=O)CSc1nc(CN2CCOCC2)nc2ccccc12)c1cccc2ccccc12 (configuration not stated) | inactive
Cc1ccc(S(=O)(=O)n2ccc(OC(=O)c3cccs3)n2)cc1 | inactive
COc1cc(C(=O)Oc2ccccc2C#N)ccc1OCc1ccc(Cl)cc1 | inactive
CC(=O)Nc1ccc(S(=O)(=O)Nc2nc3ccccc3nc2N2CCc3ccccc3C2)cc1 | inactive
O=C(O)c1ccccc1-n1cccc1 | inconclusive: 35.5 µM [inhibitor, partial curve, poor fit]
N#Cc1cc2c(nc1SCc1ccc(Cl)nc1)CCCCC2 | inactive
COc1ccc(CCNC(=S)N2CCN(S(=O)(=O)c3ccccc3)CC2)cc1 | inconclusive: 44.7 µM [inhibitor, partial curve, poor fit]
CCCCCNC(=O)Cc1c[nH]c2ccccc12 | inactive

SMILES | Potency
Cc1cc(=O)[nH]c(CN2CCC(c3ccccc3)CC2)n1 | inconclusive: 50.1 µM [inhibitor, partial curve, poor fit]
O=C(Nc1c(-c2ccccc2)nc2ccccn12)c1cccc(F)c1 | inactive
Cc1cc(C)cc(C2(CNC(=O)C3CC4(CCNCC4)CN3)CCCC2)c1 (configuration not stated) | inactive
Cc1cc(NC(=O)NN2CCOCC2)nn1-c1c(Cl)cccc1Cl | inconclusive: 126 µM [inhibitor, single point]
COc1ccc(CCNC(=O)c2ccnc(C(C)(C)C)c2)cc1OC | inactive
C/C(=C\C(=O)c1ccccc1)Nc1ccc(Br)c(Cl)c1 | inconclusive: 56.2 µM [inhibitor, partial curve, poor fit]
COCCN1C(=O)C(=O)/C(=C(/O)c2ccc(OC)c(C)c2)C1c1ccc(Cl)cc1Cl (configuration not stated) | inconclusive: 20 µM [inhibitor, partial curve, poor fit]
Cc1cnc(CNc2ccnc(-c3ccc(N(C)C)cc3)n2)cn1 | inconclusive: 7.08 µM [inhibitor, full curve]
Nc1nc(NCc2ccc(Cl)cc2Cl)cc(C2CC(O)C2)n1 (configuration not stated) | inactive
Cn1c(=O)c2c(ncn2CC(=O)NC23CC4CC(CC(C4)C2)C3)n(C)c1=O | inconclusive: 50.1 µM [inhibitor, partial curve, poor fit]
CCOC(=O)c1c(C)[nH]c(=S)c(C#N)c1-c1ccc(OC)cc1 | inconclusive: 15.8 µM [inhibitor, partial curve, poor fit]
C/C(=N/NC(=O)c1sc(NS(=O)(=O)c2ccccc2)nc1C)c1sc(N)nc1C | inconclusive: 15.8 µM [inhibitor, partial curve, poor fit]
COc1ccc([C@@H]2[C@@H]3C(=O)N(C(C)(C)C)C(=O)[C@@H]3[C@]3(Cc4ccccc4)C(=O)N(c4ccc(C)cc4)C(=O)N23)cc1 | inconclusive: 44.7 µM [inhibitor, partial curve, poor fit]
Cc1cc(-c2nc(C)c(C(=O)NNS(=O)(=O)c3ccc(Cl)cc3Cl)s2)no1 | inconclusive: 1.78 µM [inhibitor, full curve, poor fit]
NC(=O)CN(C/C=C/c1ccccc1)C/C=C/c1ccccc1 | inconclusive: 0.224 µM [inhibitor, full curve]
Cc1cc(C)cc(NC(=S)NCCc2c[nH]c3ccccc23)c1 | inconclusive: 20 µM [inhibitor, full curve, poor fit]
O=C(Oc1ccc2c(=O)c(Oc3ccc4ccccc4c3)coc2c1)c1cncc(Br)c1 | inconclusive: 50.1 µM [inhibitor, partial curve, poor fit]
CCSc1nc2c(c(-c3ccc(C)o3)c1C#N)CCCC2 | inconclusive: 15.8 µM [inhibitor, partial curve, poor fit]
Cn1nc(C(=O)N2CCN(c3ccc(F)cc3)CC2)c2c1-c1ccccc1S(=O)(=O)C2 | inactive
CCC(=O)NC(=S)Nc1ccc(S(=O)(=O)NC(C)=O)cc1 | inactive
O=C(CCc1c[nH]c2ccccc12)NCc1cccc(Cl)c1 | inconclusive: 79.4 µM [inhibitor, partial curve, poor fit]
O=C(C1COc2ccccc2O1)N1CCc2onc(-c3cccc(F)c3)c2C1 (configuration not stated) | inconclusive: 14.1 µM [inhibitor, partial curve]
CN(Cc1ccc(OC(F)(F)F)cc1)C(=O)C1(c2ccc(Cl)cc2)CCOCC1 | inconclusive: 20 µM [inhibitor, full curve, poor fit]

SMILES | Potency
COc1ccc(NC(=O)NC[C@H]2COCc3nc4ccccc4n32)cc1 | inconclusive: 56.2 µM [inhibitor, single point]
CCc1ccc(NS(=O)(=O)c2ccc3c(c2)C(C)(C)C(=O)N3)cc1 | inactive
Cc1ccc2nc(-c3ccc4ccccc4c3)cc(C(=O)O)c2c1 | inconclusive: 35.5 µM [inhibitor, partial curve, poor fit]
COc1ccc(C(=O)Nc2nc3c(s2)CCCC3)cc1Cl | inconclusive: 35.5 µM [inhibitor, partial curve, poor fit]
CC(C)(C)NC(=O)NC(=O)CSc1nc(C2CC2)nc2ccccc12 | inconclusive: 89.1 µM [inhibitor, partial curve, poor fit]
CCOc1ccc(CN2CCN(c3cccc(C)c3C)CC2)cc1OC | inconclusive: 2.82 µM [inhibitor, full curve, poor fit]
Clc1cccc(-c2ccc3ncnc(NCc4cccnc4)c3c2)c1 | inconclusive: 50.1 µM [inhibitor, partial curve, poor fit]
CCOc1cccc(NC(=O)CSc2ncc(-c3ccccc3)[nH]2)c1 | inactive
CCCOP(=O)(OCCC)c1nc(-c2ccccc2)oc1NC | inconclusive: 50.1 µM [inhibitor, partial curve, poor fit]
CC(C)(C)c1ccc(/C=C2\CCc3ccccc3C2=O)cc1 | inactive
COc1cccc(Cn2c(=O)c(-c3cn(C)c4ccccc34)nc3cnc(OC)nc32)c1 | active: 39.8 µM
COC(=O)[C@@]12C[C@@H](CC(=O)NCc3ccc(C)o3)C(=O)N(Cc3ccco3)C1=CCC(C)(C)C2 | inconclusive: 39.8 µM [inhibitor, partial curve, poor fit]
CC(C)NC(=O)NC(=O)COc1ccc(C(=O)c2ccc(F)cc2)cc1 | inactive
Cc1ccccc1-c1nc(NC2CCNCC2)c2ccccc2n1 | inconclusive: 10 µM [inhibitor, full curve, poor fit]
N#C/C(=C/c1cccc(C(F)(F)F)c1)c1nc(CCN2C(=O)c3ccccc3C2=O)cs1 | inconclusive: 112 µM [inhibitor, single point]
O=C(O)c1ccc(CC2CCN(C(=O)c3ccccc3Cl)C2)cc1 (configuration not stated) | inconclusive: 100 µM [inhibitor, partial curve, poor fit]
COc1cccc(C(=O)OCC(=O)c2ccc(Br)s2)c1OC | inconclusive: 112 µM [inhibitor, single point]
CCCN(CCN(C)C)C(=O)Nc1sc(C(=O)OCC)c(C)c1C(=O)OCC | inconclusive: 39.8 µM [inhibitor, partial curve, poor fit]
CCN(CC)CCCNC(=O)c1cc2c(=O)[nH]c3ccc(C)cc3c2s1 | inconclusive: 63.1 µM [inhibitor, partial curve, poor fit]
COc1ccc(N(Cc2cc3ccc(C)cc3[nH]c2=O)C(=O)c2ccco2)cc1 | inactive
CC(C)[C@H]1CN(CCC(=O)O)C[C@@H]1NC(=O)CCC1CCCC1 | inconclusive: 3.55 µM [inhibitor, full curve, poor fit]

Part of the list above, in CSV form:
SMILES,Potency
COC(=O)c1ccc(CNC(=O)c2cc(COc3cncc(Cl)c3)on2)cc1,"inconclusive: 50.1 µM [inhibitor, partial curve, poor fit]"
C#CCn1c(C2CC(=O)N(c3ccc(OCC)cc3)C2)nc2ccccc21 (configuration not stated),inactive
CC(NC(=O)CSc1nc(CN2CCOCC2)nc2ccccc12)c1cccc2ccccc12 (configuration not stated),inactive
CCOC(=O)c1c(C)[nH]c(=S)c(C#N)c1-c1ccc(OC)cc1,"inconclusive: 15.8 µM [inhibitor, partial curve, poor fit]"
